Patent publication US10160773B2, “Method for inducing cytotoxicity in cancer cells” (King Fahd University of Petroleum and Minerals, priority 2016, dated 2018)

Assays:
[1] = Interaction with L-tyrosine by cyclic voltammetry; settings: 320 μM L-tyrosine, 0.1 mM complex; peak at 0.654 V in absence of gold compounds
[2] = Interaction with glutathione by cyclic voltammetry; settings: for peak of the complex after first spike of glutathione: 20 μM glutathione into 0.1 mM complex; for effect of subsequent glutathione spikes on peak currents of the complex: 0.1 mM complex, glutathione 20-100 μM

[Au(npen)2]Cl3 [Complex 2]
L-tyrosine peak potential in the presence of complex [1]: +0.672 V
peak of the complex after first spike of glutathione [2]: +0.955 V
effect of subsequent glutathione spikes on peak currents of the complex [2]: systematic decrease in the registered peak currents

NC(c1cccc2ccccc12)C(N)c1cccc2ccccc12.O.O.[Au+3].[Cl-].[Cl-].[Cl-] (stereo not drawn) [Complex 1, [Au(npen)Cl2]Cl.2H2O]
L-tyrosine peak potential in the presence of complex [1]: +0.712 V
peak of the complex after first spike of glutathione [2]: +0.942 V
effect of subsequent glutathione spikes on peak currents of the complex [2]: systematic decrease in the registered peak currents
